This note sets out measurements from publication doi:10.1101/2023.11.29.569073.

No constants are given. Whether binding was seen depends on the method and setting. In cells and extracts the contact can be indirect. Some binding calls cover weakened binding; strength is not graded here. Where a sequence is shown, tags or fusion partners need not be part of it.

This test has as its target T1, CPK28-nLuc (Arabidopsis thaliana) (UniProt Q9FKW4).
T1 sequence: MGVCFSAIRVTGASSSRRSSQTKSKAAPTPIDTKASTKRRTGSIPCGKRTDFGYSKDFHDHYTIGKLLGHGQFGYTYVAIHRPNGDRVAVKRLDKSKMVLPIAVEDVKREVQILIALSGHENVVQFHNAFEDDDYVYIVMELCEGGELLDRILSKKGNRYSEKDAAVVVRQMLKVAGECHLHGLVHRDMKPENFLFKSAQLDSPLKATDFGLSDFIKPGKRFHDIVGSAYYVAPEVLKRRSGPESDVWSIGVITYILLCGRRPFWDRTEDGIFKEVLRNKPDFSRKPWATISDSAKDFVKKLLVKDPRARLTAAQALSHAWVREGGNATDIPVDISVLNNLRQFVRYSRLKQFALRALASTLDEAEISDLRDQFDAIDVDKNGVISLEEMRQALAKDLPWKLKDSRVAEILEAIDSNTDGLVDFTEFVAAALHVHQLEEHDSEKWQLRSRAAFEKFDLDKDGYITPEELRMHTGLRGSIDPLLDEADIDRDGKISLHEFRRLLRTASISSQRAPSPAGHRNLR
The test is described as follows: split reporter.

B1: cLuc-CBC1 (enzyme, UniProt Q9SSA4 1-411)
chain: MKEKAESGGGVGYVRADQIDLKSLDEQLQRHLSKAWTMEKRKSLSDGEDNVNNTRHNQNNFGHRQLVFQRPLLGGGYSNNNNSSKNDIIRSTEVEKSRREWEIDPSKLIIKSVIARGTFGTVHRGIYDGQDVAVKLLDWGEEGHRSDAEIASLRAAFTQEVAVWHKLDHPNVTKFIGAAMGTSEMSIQTENGQMGMPSNVCCVVVEYCPGGALKSFLIKTRRRKLAFKVVIQLSLDLARGLSYLHSQKIVHRDVKTENMLLDKSRTLKIADFGVARLEASNPNDMTGETGTLGYMAPEVLNGSPYNRKCDVYSFGICLWEIYCCDMPYPDLSFSEVTSAVVRQNLRPEIPRCCPSSLANVMKRCWDANPEKRPEMEEVVAMLEAIDTSKGGGMIPPDQQQGCFCFRRHRGP
With B1, the binding entry is reported as “binds”.
